Measurements from patent publication US20090092640A1.
Results are given in words; binding and its absence hold for the method and conditions named. Some binding calls cover weakened binding; strength is not graded here.

By UniProt entry, the sequences of proteins in these tests, tags left out. Where a name states a change or a piece, a line headed by the entry shows the natural chain unless it says otherwise. Residues count along the entry.
UniProt O43557: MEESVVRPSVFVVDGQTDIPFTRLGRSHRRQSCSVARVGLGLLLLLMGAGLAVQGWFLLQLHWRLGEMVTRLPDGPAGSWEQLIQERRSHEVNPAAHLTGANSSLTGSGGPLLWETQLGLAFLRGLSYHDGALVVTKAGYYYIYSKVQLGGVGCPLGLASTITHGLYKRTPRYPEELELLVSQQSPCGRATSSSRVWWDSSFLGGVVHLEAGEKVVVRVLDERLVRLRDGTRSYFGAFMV
UniProt P50284, residues 31-223: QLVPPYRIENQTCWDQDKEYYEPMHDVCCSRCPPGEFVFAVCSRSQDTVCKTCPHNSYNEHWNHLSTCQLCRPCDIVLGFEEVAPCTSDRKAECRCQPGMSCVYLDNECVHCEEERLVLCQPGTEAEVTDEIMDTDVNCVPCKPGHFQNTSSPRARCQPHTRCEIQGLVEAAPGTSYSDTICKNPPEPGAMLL

Biological target: mutant human LIGHT (EQLI absent), expressed on AD293 cells (human) (UniProt O43557)
Test: flow cytometry, AD293 cells infected with adenovirus for mutant human LIGHT, stained with receptor-Ig

recombinant mLTbR-huFc protein (from UniProt P50284 31-223) (Fc fusion)
binding: binds
